In patent US20240034757A1:
These are yes or no findings as the source states them, for the method shown.

Sequences of proteins named here, by UniProt entry; tags and fusion partners are left off. Residues count along the entry.
UniProt O00585, residues 24-134: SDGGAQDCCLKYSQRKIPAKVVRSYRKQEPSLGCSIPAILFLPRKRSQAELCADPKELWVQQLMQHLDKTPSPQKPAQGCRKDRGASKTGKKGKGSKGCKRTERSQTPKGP
UniProt Q16663, residues 22-113: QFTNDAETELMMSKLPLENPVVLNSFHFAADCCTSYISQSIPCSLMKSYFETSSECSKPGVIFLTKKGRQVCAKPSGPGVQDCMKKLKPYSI
UniProt P10145, residues 28-99: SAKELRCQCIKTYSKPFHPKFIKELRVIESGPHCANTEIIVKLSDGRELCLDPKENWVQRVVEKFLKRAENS
UniProt O14625, residues 22-94: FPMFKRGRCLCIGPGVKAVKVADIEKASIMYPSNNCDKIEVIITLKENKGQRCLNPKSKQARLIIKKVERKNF
UniProt Q9NRJ3, residues 23-127: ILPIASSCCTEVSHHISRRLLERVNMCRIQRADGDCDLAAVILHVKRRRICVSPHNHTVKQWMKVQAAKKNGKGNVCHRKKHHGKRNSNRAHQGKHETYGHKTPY
UniProt O15467, residues 24-120: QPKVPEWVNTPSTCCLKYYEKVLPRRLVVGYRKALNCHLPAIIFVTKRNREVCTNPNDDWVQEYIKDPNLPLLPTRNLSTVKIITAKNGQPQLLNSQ
UniProt Q9Y4X3, residues 25-112: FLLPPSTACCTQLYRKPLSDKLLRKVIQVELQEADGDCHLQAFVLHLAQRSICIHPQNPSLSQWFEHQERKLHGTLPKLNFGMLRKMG
UniProt P22362, residues 24-96: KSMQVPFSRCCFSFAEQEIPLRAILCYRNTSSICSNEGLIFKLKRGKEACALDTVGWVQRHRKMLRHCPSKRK
UniProt P48061, residues 22-89: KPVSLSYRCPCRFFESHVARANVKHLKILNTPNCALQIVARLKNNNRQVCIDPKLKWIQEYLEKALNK
UniProt P02778, residues 22-98: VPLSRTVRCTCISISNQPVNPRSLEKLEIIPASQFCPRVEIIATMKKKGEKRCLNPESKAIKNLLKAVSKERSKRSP
UniProt P02776, residues 32-101: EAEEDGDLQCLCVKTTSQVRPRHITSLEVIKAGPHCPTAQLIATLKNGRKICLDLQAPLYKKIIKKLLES
UniProt O43927, residues 23-109: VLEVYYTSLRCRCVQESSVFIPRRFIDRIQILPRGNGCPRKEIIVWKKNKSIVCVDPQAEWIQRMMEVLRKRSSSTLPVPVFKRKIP
UniProt P19875, residues 35-107: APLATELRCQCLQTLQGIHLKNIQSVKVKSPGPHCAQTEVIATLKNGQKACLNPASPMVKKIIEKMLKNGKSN
UniProt P78423, residues 25-100: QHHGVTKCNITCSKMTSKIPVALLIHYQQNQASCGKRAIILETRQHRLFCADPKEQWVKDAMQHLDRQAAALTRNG
UniProt P80162, residues 38-114: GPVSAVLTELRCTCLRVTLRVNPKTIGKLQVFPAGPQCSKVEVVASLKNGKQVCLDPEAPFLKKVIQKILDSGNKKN
UniProt O95715, residues 35-111: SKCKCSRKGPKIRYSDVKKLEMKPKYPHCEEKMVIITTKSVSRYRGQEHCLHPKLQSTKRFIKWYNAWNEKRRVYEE
UniProt P19876, residues 35-107: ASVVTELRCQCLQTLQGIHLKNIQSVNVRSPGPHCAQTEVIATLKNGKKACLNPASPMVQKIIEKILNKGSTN
UniProt O00626, residues 25-93: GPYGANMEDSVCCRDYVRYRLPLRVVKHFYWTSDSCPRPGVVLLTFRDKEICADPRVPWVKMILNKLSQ
UniProt Q99731, residues 22-98: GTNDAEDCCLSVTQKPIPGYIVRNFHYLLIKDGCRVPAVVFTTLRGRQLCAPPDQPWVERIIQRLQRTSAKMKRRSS
UniProt O00175, residues 27-104: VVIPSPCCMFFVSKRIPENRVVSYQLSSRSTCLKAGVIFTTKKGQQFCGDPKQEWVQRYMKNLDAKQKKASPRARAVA
UniProt P02775, residues 59-128: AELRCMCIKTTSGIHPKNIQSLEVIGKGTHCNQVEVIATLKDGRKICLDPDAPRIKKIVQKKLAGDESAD
UniProt P42830, residues 41-114: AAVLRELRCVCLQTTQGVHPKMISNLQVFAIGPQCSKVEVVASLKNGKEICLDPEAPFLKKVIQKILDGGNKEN
UniProt P13501, residues 24-91: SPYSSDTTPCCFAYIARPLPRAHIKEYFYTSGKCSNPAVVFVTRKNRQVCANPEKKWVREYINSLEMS
UniProt Q92583, residues 24-94: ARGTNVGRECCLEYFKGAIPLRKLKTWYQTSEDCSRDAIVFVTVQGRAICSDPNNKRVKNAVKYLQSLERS
UniProt Q07325, residues 23-125: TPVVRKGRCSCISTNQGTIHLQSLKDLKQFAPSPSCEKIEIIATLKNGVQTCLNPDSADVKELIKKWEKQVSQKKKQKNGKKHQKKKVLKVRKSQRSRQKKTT
UniProt P78556, residues 27-96: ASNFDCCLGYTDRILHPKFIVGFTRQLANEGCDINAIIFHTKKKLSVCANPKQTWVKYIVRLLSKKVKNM
UniProt P09341, residues 35-107: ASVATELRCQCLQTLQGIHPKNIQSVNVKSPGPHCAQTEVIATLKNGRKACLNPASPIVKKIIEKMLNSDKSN
UniProt P55773, residues 22-120: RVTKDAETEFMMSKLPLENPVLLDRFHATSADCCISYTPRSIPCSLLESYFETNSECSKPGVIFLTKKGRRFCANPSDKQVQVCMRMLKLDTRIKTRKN

Columns and labels:
CCL21_HUMAN (human) [1] = target: CCL21_HUMAN (human) (UniProt O00585); assay: BLI, empty cell the 12th table, row 32, column 9
CCL15_HUMAN (human) [2] = target: CCL15_HUMAN (human) (UniProt Q16663); assay: BLI, empty cell the 12th table, row 25, column 9
CXCL8_HUMAN (human) [3] = target: CXCL8_HUMAN (human) (UniProt P10145); assay: BLI, empty cell the 12th table, row 49, column 9
CXCL11_HUMAN (human) [4] = target: CXCL11_HUMAN (human) (UniProt O14625); assay: BLI, empty cell the 12th table, row 52, column 9
CCL28_HUMAN (human) [5] = target: CCL28_HUMAN (human) (UniProt Q9NRJ3); assay: BLI, empty cell the 12th table, row 40, column 9
CCL16_HUMAN (human) = CCL16_HUMAN (human) (UniProt O15467); assay: BLI, empty cell the 12th table, row 26, column 9
CCL27_HUMAN (human) [6] = target: CCL27_HUMAN (human) (UniProt Q9Y4X3); assay: BLI, empty cell the 12th table, row 38, column 9
CCL1_HUMAN (human) = CCL1_HUMAN (human) (UniProt P22362); assay: BLI, empty cell the 12th table, row 10, column 9
CXCL12_HUMAN (human) [7] = target: CXCL12_HUMAN (human) (UniProt P48061); assay: BLI, empty cell the 12th table, row 53, column 9
CXCL10_HUMAN (human) [8] = target: CXCL10_HUMAN (human) (UniProt P02778); assay: BLI, empty cell the 12th table, row 51, column 9
CXCL4_HUMAN (human) [9] = target: CXCL4_HUMAN (human) (UniProt P02776); assay: BLI, empty cell the 12th table, row 45, column 9
CXCL13_HUMAN (human) [10] = target: CXCL13_HUMAN (human) (UniProt O43927); assay: BLI, empty cell the 12th table, row 54, column 9
CXCL2_HUMAN (human) [11] = target: CXCL2_HUMAN (human) (UniProt P19875); assay: BLI, empty cell the 12th table, row 43, column 9
CX3CL1_HUMAN (human) [12] = target: CX3CL1_HUMAN (human) (UniProt P78423); assay: BLI, empty cell the 12th table, row 41, column 9
CXCL6_HUMAN (human) [13] = target: CXCL6_HUMAN (human) (UniProt P80162); assay: BLI, empty cell the 12th table, row 47, column 9
CXCL14_HUMAN (human) [14] = target: CXCL14_HUMAN (human) (UniProt O95715); assay: BLI, empty cell the 12th table, row 55, column 9
CXCL3_HUMAN (human) [15] = target: CXCL3_HUMAN (human) (UniProt P19876); assay: BLI, empty cell the 12th table, row 44, column 9
CCL22_HUMAN (human) = CCL22_HUMAN (human) (UniProt O00626); assay: BLI, empty cell the 12th table, row 33, column 9
CCL19_HUMAN (human) = CCL19_HUMAN (human) (UniProt Q99731); assay: BLI, empty cell the 12th table, row 29, column 9
XCL1_HUMAN (human) [16] = target: T1, XCL1_HUMAN (human) (UniProt P47992); assay: BLI, empty cell the 12th table, row 59, column 9
T1 sequence: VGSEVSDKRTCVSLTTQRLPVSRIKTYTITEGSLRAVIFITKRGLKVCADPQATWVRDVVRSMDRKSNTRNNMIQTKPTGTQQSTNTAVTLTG

CCL24_HUMAN (human) [17] = target: CCL24_HUMAN (human) (UniProt O00175); assay: BLI, empty cell the 12th table, row 35, column 9
CXCL7_HUMAN (human) [18] = target: CXCL7_HUMAN (human) (UniProt P02775); assay: BLI, empty cell the 12th table, row 48, column 9
CXCL5_HUMAN (human) [19] = target: CXCL5_HUMAN (human) (UniProt P42830); assay: BLI, empty cell the 12th table, row 46, column 9
CCL5_HUMAN (human) = CCL5_HUMAN (human) (UniProt P13501); assay: BLI, empty cell the 12th table, row 18, column 9
CCL17_HUMAN (human) = CCL17_HUMAN (human) (UniProt Q92583); assay: BLI, empty cell the 12th table, row 27, column 9
CXCL9_HUMAN (human) [20] = target: CXCL9_HUMAN (human) (UniProt Q07325); assay: BLI, empty cell the 12th table, row 50, column 9
CCL20_HUMAN (human) [21] = target: CCL20_HUMAN (human) (UniProt P78556); assay: BLI, empty cell the 12th table, row 30, column 9
CXCL1_HUMAN (human) [22] = target: CXCL1_HUMAN (human) (UniProt P09341); assay: BLI, empty cell the 12th table, row 42, column 9
CCL23_HUMAN (human) [23] = target: CCL23_HUMAN (human) (UniProt P55773); assay: BLI, empty cell the 12th table, row 34, column 9
CXCL2_HUMAN (human) [24] = target: CXCL2_HUMAN (human) (UniProt P19875); assay: BLI, empty cell the 12th table, row 43, column 7
CXCL10_HUMAN (human) [25] = target: CXCL10_HUMAN (human) (UniProt P02778); assay: BLI, empty cell the 12th table, row 51, column 7
CXCL9_HUMAN (human) [26] = target: CXCL9_HUMAN (human) (UniProt Q07325); assay: BLI, empty cell the 12th table, row 50, column 7
CXCL6_HUMAN (human) [27] = target: CXCL6_HUMAN (human) (UniProt P80162); assay: BLI, empty cell the 12th table, row 47, column 7
CXCL3_HUMAN (human) [28] = target: CXCL3_HUMAN (human) (UniProt P19876); assay: BLI, empty cell the 12th table, row 44, column 7
CCL15_HUMAN (human) [29] = target: CCL15_HUMAN (human) (UniProt Q16663); assay: BLI, empty cell the 12th table, row 25, column 7
CXCL8_HUMAN (human) [30] = target: CXCL8_HUMAN (human) (UniProt P10145); assay: BLI, empty cell the 12th table, row 49, column 7
CXCL1_HUMAN (human) [31] = target: CXCL1_HUMAN (human) (UniProt P09341); assay: BLI, empty cell the 12th table, row 42, column 7
CCL28_HUMAN (human) [32] = target: CCL28_HUMAN (human) (UniProt Q9NRJ3); assay: BLI, empty cell the 12th table, row 40, column 7
CXCL5_HUMAN (human) [33] = target: CXCL5_HUMAN (human) (UniProt P42830); assay: BLI, empty cell the 12th table, row 46, column 7
CCL24_HUMAN (human) [34] = target: CCL24_HUMAN (human) (UniProt O00175); assay: BLI, empty cell the 12th table, row 35, column 7
CCL21_HUMAN (human) [35] = target: CCL21_HUMAN (human) (UniProt O00585); assay: BLI, empty cell the 12th table, row 32, column 7
CCL20_HUMAN (human) [36] = target: CCL20_HUMAN (human) (UniProt P78556); assay: BLI, empty cell the 12th table, row 30, column 7
CXCL11_HUMAN (human) [37] = target: CXCL11_HUMAN (human) (UniProt O14625); assay: BLI, empty cell the 12th table, row 52, column 7
CXCL14_HUMAN (human) [38] = target: CXCL14_HUMAN (human) (UniProt O95715); assay: BLI, empty cell the 12th table, row 55, column 7
CXCL7_HUMAN (human) [39] = target: CXCL7_HUMAN (human) (UniProt P02775); assay: BLI, empty cell the 12th table, row 48, column 7
CXCL4_HUMAN (human) [40] = target: CXCL4_HUMAN (human) (UniProt P02776); assay: BLI, empty cell the 12th table, row 45, column 7
CCL27_HUMAN (human) [41] = target: CCL27_HUMAN (human) (UniProt Q9Y4X3); assay: BLI, empty cell the 12th table, row 38, column 7
CCL23_HUMAN (human) [42] = target: CCL23_HUMAN (human) (UniProt P55773); assay: BLI, empty cell the 12th table, row 34, column 7
XCL1_HUMAN (human) [43] = target: T1, XCL1_HUMAN (human); assay: BLI, empty cell the 12th table, row 59, column 7
CXCL13_HUMAN (human) [44] = target: CXCL13_HUMAN (human) (UniProt O43927); assay: BLI, empty cell the 12th table, row 54, column 7
CX3CL1_HUMAN (human) [45] = target: CX3CL1_HUMAN (human) (UniProt P78423); assay: BLI, empty cell the 12th table, row 41, column 7
CXCL12_HUMAN (human) [46] = target: CXCL12_HUMAN (human) (UniProt P48061); assay: BLI, empty cell the 12th table, row 53, column 7

Measured: binding

B1: P1180_AMBTR (protein)
chain: EEPKDGYDYTEGCPFVVLGNGTHAKPAGCSHLCNGAPETLDDNMECYNVTEEVAKRMTPDIPYTCWLGWCSKGECKRDNRTEVCYRGSERE
not listed: CXCL2_HUMAN (human) [24] | CXCL10_HUMAN (human) [25] | CXCL9_HUMAN (human) [26] | CXCL6_HUMAN (human) [27] | CXCL3_HUMAN (human) [28] | CCL15_HUMAN (human) [29] | CXCL8_HUMAN (human) [30] | CXCL1_HUMAN (human) [31] | CCL28_HUMAN (human) [32] | CXCL5_HUMAN (human) [33] | CCL24_HUMAN (human) [34] | CCL21_HUMAN (human) [35] | CCL20_HUMAN (human) [36] | CXCL11_HUMAN (human) [37] | CXCL14_HUMAN (human) [38] | CXCL7_HUMAN (human) [39] | CXCL4_HUMAN (human) [40] | CCL27_HUMAN (human) [41] | CCL23_HUMAN (human) [42] | XCL1_HUMAN (human) [43] | CXCL13_HUMAN (human) [44] | CX3CL1_HUMAN (human) [45] | CXCL12_HUMAN (human) [46]
no binding (tested: 300 nM): all other assays above

B2: P467_RHIPU (protein)
chain: AEKSLDSDSSGEDYELWTQGCPFLVAENRTGFGTTVSCQHNCNGAIEKVPEGEPCYTIGEDGLGRMKLNLPYNCSLGECSGGVCVPNGRSDVCFKRTWEENNKAMA
no binding (tested: 300 nM): CXCL2_HUMAN (human) [24] | CXCL10_HUMAN (human) [25] | CXCL9_HUMAN (human) [26] | CXCL6_HUMAN (human) [27] | CXCL3_HUMAN (human) [28] | CCL15_HUMAN (human) [29] | CXCL8_HUMAN (human) [30] | CXCL1_HUMAN (human) [31] | CCL28_HUMAN (human) [32] | CXCL5_HUMAN (human) [33] | CCL24_HUMAN (human) [34] | CCL21_HUMAN (human) [35] | CCL20_HUMAN (human) [36] | CXCL11_HUMAN (human) [37] | CXCL14_HUMAN (human) [38] | CXCL7_HUMAN (human) [39] | CXCL4_HUMAN (human) [40] | CCL27_HUMAN (human) [41] | CCL23_HUMAN (human) [42] | XCL1_HUMAN (human) [43] | CXCL13_HUMAN (human) [44] | CX3CL1_HUMAN (human) [45] | CXCL12_HUMAN (human) [46]
